Not every detail of the peptide structures is certain; ends, links or a residue may be inferred. Where no end group is shown, it is not given here.
How the values were obtained:
CD4 = assay: Blocking of virus binding by the peptide
[1] = system: CD4-depending cellular function; assay: Modulation of CD4-dependent cellular function in vitro; type: cell-based

Sequence: KQFINMWQEVGKAMYAPP [B138]
- virus binding (CD4): block virus binding
- cellular regulatory functions [1]: immunosuppression that parallels gp120
